Results on one substance are retold here after paper PMC5669951.

These are yes or no findings as the source states them, for the method shown. Binding seen in cells or lysates may run through a third protein. Binding calls can cover weak binding; strength is not graded here. Where a sequence is shown, tags or fusion partners need not be part of it.

Assay [1] concerns the target T1, Flag-MIZ1 (MYC-interacting zinc-finger protein 1, Flag tagged) (UniProt Q13105).
T1 sequence: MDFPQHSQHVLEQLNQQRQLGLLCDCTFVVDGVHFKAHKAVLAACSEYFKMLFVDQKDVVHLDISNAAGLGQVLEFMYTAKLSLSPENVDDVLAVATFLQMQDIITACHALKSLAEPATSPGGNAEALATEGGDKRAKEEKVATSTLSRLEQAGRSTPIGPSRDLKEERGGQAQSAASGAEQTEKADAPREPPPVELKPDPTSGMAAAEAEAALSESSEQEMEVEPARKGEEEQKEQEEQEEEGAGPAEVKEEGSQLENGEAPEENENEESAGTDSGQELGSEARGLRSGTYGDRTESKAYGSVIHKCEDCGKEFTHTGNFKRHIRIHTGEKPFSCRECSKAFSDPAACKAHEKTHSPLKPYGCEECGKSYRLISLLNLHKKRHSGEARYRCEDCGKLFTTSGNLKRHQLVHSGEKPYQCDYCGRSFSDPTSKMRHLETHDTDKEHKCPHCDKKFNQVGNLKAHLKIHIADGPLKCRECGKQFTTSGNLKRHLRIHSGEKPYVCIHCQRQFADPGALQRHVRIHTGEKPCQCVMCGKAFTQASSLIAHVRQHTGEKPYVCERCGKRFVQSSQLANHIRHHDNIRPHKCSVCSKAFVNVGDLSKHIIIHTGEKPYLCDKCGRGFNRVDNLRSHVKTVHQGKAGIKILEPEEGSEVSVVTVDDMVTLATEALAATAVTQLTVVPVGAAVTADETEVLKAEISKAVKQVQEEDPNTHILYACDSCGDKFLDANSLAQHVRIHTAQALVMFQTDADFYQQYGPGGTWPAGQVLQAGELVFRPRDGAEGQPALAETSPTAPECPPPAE
Description: co-IP; HEK 293T cells co-transfected with tagged constructs, lysed 48 h after transfection (20 mM Tris-HCl pH 7.4, 2 mM EDTA, 25 mM NaF, 1% Triton X-100); IP with Myc, Flag or HA antibody and protein A/G beads overnight at 4 °C; immunoblotting; in Figure 4E with or without HA-RLIM (1 or 2 μg). In general terms: In western blotting, separated proteins are transferred to a membrane and probed.

In assay [2] the target is T2, HA-RLIM (RING finger LIM domain-binding protein, HA tagged) (UniProt Q9NVW2).
T2 sequence: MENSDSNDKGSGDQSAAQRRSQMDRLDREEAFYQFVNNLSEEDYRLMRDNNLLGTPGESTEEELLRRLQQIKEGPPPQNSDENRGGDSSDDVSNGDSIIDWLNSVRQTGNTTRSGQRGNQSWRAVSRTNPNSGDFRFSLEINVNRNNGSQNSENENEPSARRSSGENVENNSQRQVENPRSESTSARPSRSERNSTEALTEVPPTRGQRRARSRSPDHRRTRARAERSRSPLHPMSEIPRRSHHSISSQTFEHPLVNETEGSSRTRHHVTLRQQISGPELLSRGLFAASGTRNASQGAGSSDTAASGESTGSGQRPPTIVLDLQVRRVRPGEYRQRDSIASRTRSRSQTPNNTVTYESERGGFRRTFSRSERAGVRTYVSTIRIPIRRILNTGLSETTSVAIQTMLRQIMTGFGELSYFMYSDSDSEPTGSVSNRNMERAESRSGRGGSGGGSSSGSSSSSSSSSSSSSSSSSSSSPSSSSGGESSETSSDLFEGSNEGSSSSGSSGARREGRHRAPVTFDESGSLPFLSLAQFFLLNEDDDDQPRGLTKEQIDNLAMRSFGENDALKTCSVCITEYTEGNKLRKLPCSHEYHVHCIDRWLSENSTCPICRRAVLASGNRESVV
The description is as above.

Consider “Myc-c-MYC (c-MYC, Myc tagged) (from UniProt P01106-1)”, for which the binding result in assay [1] and in assay [2] was “binds” in each case.
